Laboratory results from patent publication US20170189504A1, “NOVEL PEPTIDES AND COMBINATION OF PEPTIDES FOR USE IN IMMUNOTHERAPY AGAINST VARIOUS CANCERS” (immatics biotechnologies GmbH, priority 2015, published 2017).
For part of these data: Expression grades refer to the transcript from which the peptide derives; gene names, where given, were looked up from the sequence.

Key:
source genes (mRNA) [1] = assay: Gene and exon expression of source genes, TCGA tumor samples compared with normal tissue samples (Lonsdale, 2013) (Table 17); design: species or system human; settings: for Target coverage: over-expression category of source gene, BRCA: Breast cancer (N = 1104), cutoff more than 2-fold above highest 75% percentile of high and medium risk normal tissue samples; for Target coverage: over-expression category of source gene, ESCA: Esophageal cancer (N = 185); for Target coverage: over-expression category of source gene, GBM: Glioblastoma multiforme (N = 169); for Target coverage: over-expression category of source gene, STAD: Stomach adenocarcinoma (N = 415)
HLA-A*02 = assay: Identification and relative LC-MS quantitation of HLA-A*02-presented tumor-associated peptides on tissue samples (presentation profiles, Tables 13A, 13B, 15, FIG. 1); design: species or system human; key to Presentation score NHL / Presentation score CLL / Presentation score BRCA / Presentation score AML / Presentation score GB / Presentation score NSCLC / Presentation score GBC_CCC / Presentation score UEC / Presentation score MEL / Presentation score OSCAR / Presentation score GC / Presentation score UBC / Presentation score OC / Presentation score RCC / Presentation score CRC / Presentation score PCA / Presentation score HCC / Presentation score PC / Presentation score SCLC: specifically presented on tumors (++++); very highly over-presented on tumors compared to a panel of normal tissues (+++); highly over-presented on tumors compared to a panel of normal tissues (++); over-presented on tumors compared to a panel of normal tissues (+); settings: for Presentation score CLL: chronic lymphocytic leukemia (N = 17) vs panel of normal tissues (N = 262); for Presentation score NHL: non-Hodgkin lymphoma (N = 18) vs panel of normal tissues (N = 262); for Presentation score NSCLC: non-small cell lung cancer (N = 90) vs panel of normal tissues (N = 262); for Peptide Presentation on cancer entities: HLA-A*02-binding tumor-associated peptides; for Presentation score GB: glioblastoma (N = 41) vs panel of normal tissues (N = 262); for Presentation score PCA: prostate cancer and benign prostate hyperplasia (N = 39) vs panel of normal tissues (N = 262)
source genes (mRNA) [2] = assay: Expression profiling of source genes by in-house RNASeq of tumor and normal tissues (Table 18, FIG. 2); design: species or system human; key: very highly over-expressed in tumors compared to a panel of normal tissues (+++); highly over-expressed in tumors compared to a panel of normal tissues (++); over-expressed in tumors compared to a panel of normal tissues (+); settings: source gene of peptide; for Expression score GB: glioblastoma (N = 24) vs panel of normal tissues; for Expression score NHL: non-Hodgkin lymphoma (N = 10) vs panel of normal tissues; for Expression score NSCLC: non-small cell lung cancer (N = 11) vs panel of normal tissues; for Expression score OC: ovarian cancer (N = 12) vs panel of normal tissues; for Expression score SCLC: small cell lung cancer (N = 10) vs panel of normal tissues; for Expression score PCA: prostate cancer and benign prostate hyperplasia (N = 5) vs panel of normal tissues
[3] = cutoff more than 2-fold above highest 75% percentile of normal tissue samples
[4] = FIG. 1, A*02 positive samples, only samples with presentation shown
[5] = Table 13A, cancer entities on which the peptide was found presented
[6] = Table 13B, presentation on additional cancer entities

8: peptide found in FEN1 (gene looked up) (SIYQFLIAV; listed as Homo sapiens) [compound 8]
Target coverage: over-expression category of source gene, LAML (source genes (mRNA) [1]; Acute Myeloid Leukemia (N = 173), cutoff more than 2-fold above highest 75% percentile of normal tissue samples): B (>= 20% of tumors above the cutoff, but <50%)
Target coverage: over-expression category of source gene, BLCA (source genes (mRNA) [1]; Bladder urothelial carcinoma (N = 408), cutoff more than 2-fold above highest 75% percentile of normal tissue samples): A (>=50% of tumors above the cutoff)
Target coverage: over-expression category of source gene, BRCA (source genes (mRNA) [1]): B (>= 20% of tumors above the cutoff, but <50%)
Target coverage: over-expression category of source gene, CHOL (source genes (mRNA) [1]; Cholangiocarcinoma (N = 36), cutoff more than 2-fold above highest 75% percentile of normal tissue samples): C (>=5% of tumors above the cutoff, but <20%)
Target coverage: over-expression category of source gene, READ (source genes (mRNA) [1]; Colon and rectal adenocarcinoma (N = 167), cutoff more than 2-fold above highest 75% percentile of normal tissue samples): B (>= 20% of tumors above the cutoff, but <50%)
Target coverage: over-expression category of source gene, COAD (source genes (mRNA) [1]; Colon and rectal adenocarcinoma (N = 462), cutoff more than 2-fold above highest 75% percentile of normal tissue samples): B (>= 20% of tumors above the cutoff, but <50%)
Target coverage: over-expression category of source gene, ESCA (source genes (mRNA) [1]; [3]): B (>= 20% of tumors above the cutoff, but <50%)
Target coverage: over-expression category of source gene, GBM (source genes (mRNA) [1]; [3]): B (>= 20% of tumors above the cutoff, but <50%)
Target coverage: over-expression category of source gene, LIHC (source genes (mRNA) [1]; Liver hepatocellular carcinoma (N = 374), cutoff more than 2-fold above highest 75% percentile of normal tissue samples): C (>=5% of tumors above the cutoff, but <20%)
Target coverage: over-expression category of source gene, LGG (source genes (mRNA) [1]; Lower grade glioma (N = 534), cutoff more than 2-fold above highest 75% percentile of normal tissue samples): C (>=5% of tumors above the cutoff, but <20%)
Target coverage: over-expression category of source gene, LUAD (source genes (mRNA) [1]; Lung adenocarcinoma (N = 517), cutoff more than 2-fold above highest 75% percentile of normal tissue samples): C (>=5% of tumors above the cutoff, but <20%)
Target coverage: over-expression category of source gene, LUSC (source genes (mRNA) [1]; Lung squamous cell carcinoma (N = 503), cutoff more than 2-fold above highest 75% percentile of normal tissue samples): B (>= 20% of tumors above the cutoff, but <50%)
Target coverage: over-expression category of source gene, DLBC (source genes (mRNA) [1]; Lymphoid neoplasm diffuse large B-cell lymphoma (N = 48), cutoff more than 2-fold above highest 75% percentile of normal tissue samples): A (>=50% of tumors above the cutoff)
Target coverage: over-expression category of source gene, OV (source genes (mRNA) [1]; Ovarian serous cystadenocarcinoma (N = 309), cutoff more than 2-fold above highest 75% percentile of normal tissue samples): C (>=5% of tumors above the cutoff, but <20%)
Target coverage: over-expression category of source gene, SKCM (source genes (mRNA) [1]; Skin cutaneous melanoma (N = 473), cutoff more than 2-fold above highest 75% percentile of normal tissue samples): A (>=50% of tumors above the cutoff)
Target coverage: over-expression category of source gene, STAD (source genes (mRNA) [1]; [3]): C (>=5% of tumors above the cutoff, but <20%)
Target coverage: over-expression category of source gene, UCEC (source genes (mRNA) [1]; Uterine corpus endometrial carcinoma (N = 546), cutoff more than 2-fold above highest 75% percentile of normal tissue samples): B (>= 20% of tumors above the cutoff, but <50%)
number of cancer tissues where the peptide was found to be presented (HLA-A*02; [4]): 14
number of cell lines where the peptide was found to be presented (HLA-A*02; [4]): 2
Presentation score AML (HLA-A*02; HLA-A*02 peptides, acute myeloid leukemia (N = 18) vs panel of normal tissues (N = 262)): ++++
Presentation score CLL (HLA-A*02; HLA-A*02 peptides): ++++
Presentation score GBC_CCC (HLA-A*02; HLA-A*02 peptides, gallbladder adenocarcinoma and cholangiocarcinoma (N = 6) vs panel of normal tissues (N = 262)): ++++
Presentation score NHL (HLA-A*02; HLA-A*02 peptides): ++++
Presentation score NSCLC (HLA-A*02; HLA-A*02 peptides): ++++
Peptide Presentation on cancer entities (HLA-A*02; [5]): NSCLC, CLL, GBC_CCC, AML, NHL
Peptide Presentation on cancer entities (HLA-A*02; [6]): UEC, BRCA, CRC, HNSCC
Expression score OSCAR (source genes (mRNA) [2]; esophageal cancer incl. gastric-esophageal junction (N = 11) vs panel of normal tissues): +
Expression score GB (source genes (mRNA) [2]): +
Expression score NHL (source genes (mRNA) [2]): +
Expression score NSCLC (source genes (mRNA) [2]): +
Expression score OC (source genes (mRNA) [2]): +
Expression score SCLC (source genes (mRNA) [2]): +
Expression score UEC (source genes (mRNA) [2]; uterine cancer (N = 10) vs panel of normal tissues): +

236: peptide found in NCAPD3 (gene looked up) (STIAILNSV; listed as Homo sapiens) [compound 236]
Over-expression category of source gene (target coverage), BLCA (source genes (mRNA) [1]; BLCA = Bladder urothelial carcinoma (N = 408), same cutoff): B (>= 20% of tumors above the cutoff, but <50%)
Over-expression category of source gene (target coverage), BRCA (source genes (mRNA) [1]; BRCA = Breast cancer (N = 1104), tumors more than 2-fold above highest 75% percentile of normal tissues): B (>= 20% of tumors above the cutoff, but <50%)
Over-expression category of source gene (target coverage), COAD (source genes (mRNA) [1]; COAD = Colon and rectal adenocarcinoma (N = 462), same cutoff): A (>=50% of tumors above the cutoff)
Over-expression category of source gene (target coverage), DLBC (source genes (mRNA) [1]; DLBC = Lymphoid neoplasm diffuse large B-cell lymphoma (N = 48), same cutoff): A (>=50% of tumors above the cutoff)
Over-expression category of source gene (target coverage), ESCA (source genes (mRNA) [1]; ESCA = Esophageal cancer (N = 185), same cutoff): B (>= 20% of tumors above the cutoff, but <50%)
Over-expression category of source gene (target coverage), GBM (source genes (mRNA) [1]; GBM = Glioblastoma multiforme (N = 169), same cutoff): B (>= 20% of tumors above the cutoff, but <50%)
Over-expression category of source gene (target coverage), LAML (source genes (mRNA) [1]; LAML = Acute Myeloid Leukemia (N = 173), same cutoff): A (>=50% of tumors above the cutoff)
Over-expression category of source gene (target coverage), LGG (source genes (mRNA) [1]; LGG = Lower grade glioma (N = 534), same cutoff): C (>=5% of tumors above the cutoff, but <20%)
Over-expression category of source gene (target coverage), LUAD (source genes (mRNA) [1]; LUAD = Lung adenocarcinoma (N = 517), same cutoff): C (>=5% of tumors above the cutoff, but <20%)
Over-expression category of source gene (target coverage), LUSC (source genes (mRNA) [1]; LUSC = Lung squamous cell carcinoma (N = 503), same cutoff): B (>= 20% of tumors above the cutoff, but <50%)
Over-expression category of source gene (target coverage), OV (source genes (mRNA) [1]; OV = Ovarian serous cystadenocarcinoma (N = 309), same cutoff): B (>= 20% of tumors above the cutoff, but <50%)
Over-expression category of source gene (target coverage), PRAD (source genes (mRNA) [1]; PRAD = Prostate adenocarcinoma (N = 498), same cutoff): A (>=50% of tumors above the cutoff)
Over-expression category of source gene (target coverage), READ (source genes (mRNA) [1]; READ = Colon and rectal adenocarcinoma (N = 167), same cutoff): A (>=50% of tumors above the cutoff)
Over-expression category of source gene (target coverage), SKCM (source genes (mRNA) [1]; SKCM = Skin cutaneous melanoma (N = 473), same cutoff): C (>=5% of tumors above the cutoff, but <20%)
Over-expression category of source gene (target coverage), STAD (source genes (mRNA) [1]; STAD = Stomach adenocarcinoma (N = 415), same cutoff): B (>= 20% of tumors above the cutoff, but <50%)
Over-expression category of source gene (target coverage), UCEC (source genes (mRNA) [1]; UCEC = Uterine corpus endometrial carcinoma (N = 546), same cutoff): B (>= 20% of tumors above the cutoff, but <50%)
Presentation score CLL (HLA-A*02; HLA-A*02 peptides): ++++
Presentation score OSCAR (HLA-A*02; HLA-A*02 peptides, esophageal cancer, including cancer of the gastric-esophageal junction (N = 17) vs panel of normal tissues (N = 262)): ++++
Presentation score GC (HLA-A*02; HLA-A*02 peptides, gastric cancer (N = 29) vs panel of normal tissues (N = 262)): ++++
Presentation score GB (HLA-A*02; HLA-A*02 peptides): ++++
Presentation score NHL (HLA-A*02; HLA-A*02 peptides): ++++
Presentation score NSCLC (HLA-A*02; HLA-A*02 peptides): ++++
Presentation score PCA (HLA-A*02; HLA-A*02 peptides): ++++
Peptide Presentation on cancer entities (HLA-A*02; [5]): GB, GC, NSCLC, PCA, CLL, OSCAR, NHL
Peptide Presentation on cancer entities (HLA-A*02; [6]): MEL
Expression score NHL (source genes (mRNA) [2]): +
Expression score NSCLC (source genes (mRNA) [2]): +
Expression score OC (source genes (mRNA) [2]): +
Expression score PCA (source genes (mRNA) [2]): +++
Expression score SCLC (source genes (mRNA) [2]): +

64: peptide found in STEAP2 (gene looked up) (SLFPDSLIV; listed as Homo sapiens) [compound 64]
Target coverage: over-expression category of source gene, BRCA (source genes (mRNA) [1]): C (>=5% of tumors above the cutoff, but <20%)
Target coverage: over-expression category of source gene, ESCA (source genes (mRNA) [1]; [3]): C (>=5% of tumors above the cutoff, but <20%)
Target coverage: over-expression category of source gene, PRAD (source genes (mRNA) [1]; Prostate adenocarcinoma (N = 498), cutoff more than 2-fold above highest 75% percentile of normal tissue samples): A (>=50% of tumors above the cutoff)
Target coverage: over-expression category of source gene, STAD (source genes (mRNA) [1]; [3]): C (>=5% of tumors above the cutoff, but <20%)
Presentation score PCA (HLA-A*02; HLA-A*02 peptides): ++++
Peptide Presentation on cancer entities (HLA-A*02; [5]): PCA
Peptide Presentation on cancer entities (HLA-A*02; [6]): NSCLC, HCC, BRCA, PC
Expression score NSCLC (source genes (mRNA) [2]): +
Expression score PCA (source genes (mRNA) [2]): +++

41: peptide found in PHKG1 (gene looked up) (ALFENTPKA; listed as Homo sapiens) [compound 41]
Target coverage: over-expression category of source gene, GBM (source genes (mRNA) [1]; [3]): C (>=5% of tumors above the cutoff, but <20%)
Presentation score GB (HLA-A*02; HLA-A*02 peptides): ++++
Expression score GB (source genes (mRNA) [2]): +
